Measurements: patent US20250368963A1, “PROXIMAL-BIASED KIDNEY ORGANOIDS” (UNIVERSITY OF SOUTHERN CALIFORNIA, priority 2024, published 2025)
“Also recorded” adds a separate entry of the source. At least one compound was matched to its structure with a doubt left.

Legend:
[1] = test system: E12.5 mouse kidney explants; assay: Mouse kidney organ culture with inhibitors, immunofluorescence; type: cell-based
Protocol: Mouse kidney explants and culture: Pregnant female Swiss Webster mice were euthanized on day E12.5 of pregnancy via CO2 following appropriate University of Southern California IACUC approved protocol. Embryos were removed and placed into PBS before dissecting out kidneys for explant culture as described below. Mouse kidney organ culture: Kidneys were dissected from E12.5 embryos and cultured for 48 hours at 37° C./5% CO2 in DMEM. Treatment condition culture media was initially supplemented with 20 μM LY294002, 2 μM DAPT (Tocris 2634), or both, before 48 hours of culture, following prior studies. After culture, mouse kidney explants were prepared for immunofluorescent analyses as described below for organoids.

[2] = test system: human iPSC-derived kidney organoids; assay: Bulk mRNA-sequencing of whole kidney organoids; type: cell-based
Protocol: mRNA-sequencing and data analyses: Whole organoid samples (3 independent biological replicates per timepoint, per condition for differentiation days 10 and 12, and 2 replicates for differentiation days 14 and 18) were prepared and purified according to the RNeasy Mini Kit (Qiagen, 74104). Purified RNA was sent to Novogene for sequencing. Reads were aligned to the hg38 Ensembl 105 annotation using STAR version 2.7.10a. A noise-reduction filter was applied to keep genes in which the maximum count in at least one sample was greater than or equal to 10. Partek Flow version 10.0 was then used to normalize these raw feature counts following the transcripts per million (TPM) normalization method. After filtering genes with TPM values greater than or equal to 25 in at least one sample, Z-score averages were calculated and heatmaps were clustered using pheatmap. Separately, gene set enrichment analyses were performed specifically on Day 12 replicate samples by first normalizing noise-reduced feature counts using the DESeq2 median ratio method, as recommended for gene set enrichment analyses. Partek Flow version 10.0 was then subsequently used for gene set enrichment analyses. Data are deposited with GEO accession number GSE264217 and will be made publicly available as of the date of publication.

[3] = test system: human iPSC-derived kidney organoid nephrons; assay: Whole-mount immunofluorescence quantification of organoid nephrons; type: cell-based
[4] = test system: kidney organoid nephrogenic cells; assay: Single-cell RNA-sequencing of kidney organoids; type: cell-based, human
Protocol: Kidney organoid cell dissociation: Approximately 6 organoids from multiple independent wells of both untreated and treated (48 hour culture with 10 μM LY294002 between days 10 and 12) conditions were collected at differentiation days 10, 12, 14, and 18 for single-cell RNA-sequencing, from separate differentiation batches. The organoids were dissociated using Accumax (Stem Cell Technologies, 07921) at 37° C./5% CO2 for 35 minutes and pipetted twenty times with a P-1000 wide-bore pipette tip every 5 minutes. The dissociation was neutralized by using a 2× volume of AutoMACS Running Buffer (Miltenyi Biotec, 130-091-221). Cells were pelleted by centrifugation at 4° C. for 3 minutes at 300×g. After resuspending the pellet in 2 mL of AutoMACS Running Buffer, cell suspensions were strained through 40 μm strainer (VWR, 21008-949), washing the filter with an additional 1 mL AutoMACS. The flow-through was pelleted, again at 300×g in a 4° C. for 3 minutes. […]
SPLiT-seq single-cell RNA-sequencing data collection and analyses: SPLiT-seq cell processing. […] Fixed cells were then stored at −80° C. until all samples were ready to be processed with the Evercode WT v2 single-cell RNA-sequencing platform (Parse Biosciences, ECW02030). […]

[5] = test system: human iNPC-derived kidney organoids; assay: Proximal biasing of iNPC-derived kidney organoids; type: cell-based; conditions: 48 hours days 4-6, day 12 iNPC derived organoids, compared to controls
[6] = test system: human iPSC-derived kidney organoids; assay: Modifying FGF9 levels during the proximal biasing stage; type: cell-based
[7] = day 12 treated vs day 12 control

Structure (SMILES): O=c1cc(N2CCOCC2)oc2c(-c3ccccc3)cccc12 [Ly29, LY294002]
- Jag1 abundance ([1]; mouse kidney explants cultured 48 hours with inhibitor): increased
- Hnf4a expression ([1]; mouse kidney explants cultured 48 hours with inhibitor(s)): co-detected in Jag1^+ cells
- Notch pathway genes (LNFG, HES1, HES4, NOTCH1) expression ([2]; day 12, treated days 10-12): strongly upregulated; also recorded: upregulated
- Wnt/β-catenin targets WNT4 and LGR5 expression ([2]; day 12, treated days 10-12): unchanged
- nephron progenitor markers SIX1, MEOX1, OSR1, EYA1 expression ([2]; day 12, treated days 10-12): downregulated
- gene set enrichment: Notch pathway [2, 7]: selectively upregulated
- gene set enrichment: PI3K pathway [2, 7]: downregulated
- gene set enrichment: unrelated pathways, e.g. Hedgehog [2, 7]: unaffected
- HES1 protein ([3]; day 12, 48 hour culture with inhibitor(s)): upregulated; also recorded: increased detection
- JAG1 and HNF1B throughout organoid nephrons ([3]; day 12, whole-mount immunofluorescence, two iPSC lines): strong upregulation
- HNF4A protein in organoids ([3]; day 14 and day 18, whole-mount immunofluorescence): upregulated HNF4A extensively
- expression of epithelial and nephron tubule markers (CDH4, LHX1, JAG1, HNF1B) ([4]; day 12 treated vs control nephron cells): increased expression; also recorded: upregulated
- expression of human medial SSB and proximal nephron genes (DPP4, FLRT3) ([4]; day 14, two days after inhibitor removal): increased expression
- proximal HNF1BHIGH/HNF4A+/LRP2+/LTL+ segments [5]: more abundant
- HNF4A+ structures above standard control conditions ([6]; 200 ng/mL FGF9 + 10 μM Ly29): significant increase
- nephrogenesis (HNF4A+ organoid nephrons, day 21) ([6]; PI3K inhibited with only 50 ng/mL FGF9): rescued to control organoid levels
